# Reference: publication PMC7920345
# Protein sequences, listed by entry. Tags and fused reporters are not part of them. Lines headed by an entry give the natural chain unless they say otherwise; changes in a name come on top. Chains listed by the source or under a name are the forms on record and can include a tag or linker.
# UniProt P56519: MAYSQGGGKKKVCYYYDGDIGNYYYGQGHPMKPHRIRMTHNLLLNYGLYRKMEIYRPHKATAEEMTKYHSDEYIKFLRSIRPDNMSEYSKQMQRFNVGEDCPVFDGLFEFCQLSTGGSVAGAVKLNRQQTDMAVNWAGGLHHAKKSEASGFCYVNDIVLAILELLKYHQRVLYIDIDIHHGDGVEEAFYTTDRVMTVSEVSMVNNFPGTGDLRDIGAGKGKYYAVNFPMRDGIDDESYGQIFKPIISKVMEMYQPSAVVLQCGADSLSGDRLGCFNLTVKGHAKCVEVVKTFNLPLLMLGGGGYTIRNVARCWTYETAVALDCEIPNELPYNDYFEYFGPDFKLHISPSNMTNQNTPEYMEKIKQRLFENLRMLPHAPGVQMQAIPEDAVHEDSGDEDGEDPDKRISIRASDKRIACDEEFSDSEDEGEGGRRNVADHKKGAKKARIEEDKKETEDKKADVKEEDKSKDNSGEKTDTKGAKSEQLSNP
# FLAG tagged chHDAC2-S407/411A (P56519, form named): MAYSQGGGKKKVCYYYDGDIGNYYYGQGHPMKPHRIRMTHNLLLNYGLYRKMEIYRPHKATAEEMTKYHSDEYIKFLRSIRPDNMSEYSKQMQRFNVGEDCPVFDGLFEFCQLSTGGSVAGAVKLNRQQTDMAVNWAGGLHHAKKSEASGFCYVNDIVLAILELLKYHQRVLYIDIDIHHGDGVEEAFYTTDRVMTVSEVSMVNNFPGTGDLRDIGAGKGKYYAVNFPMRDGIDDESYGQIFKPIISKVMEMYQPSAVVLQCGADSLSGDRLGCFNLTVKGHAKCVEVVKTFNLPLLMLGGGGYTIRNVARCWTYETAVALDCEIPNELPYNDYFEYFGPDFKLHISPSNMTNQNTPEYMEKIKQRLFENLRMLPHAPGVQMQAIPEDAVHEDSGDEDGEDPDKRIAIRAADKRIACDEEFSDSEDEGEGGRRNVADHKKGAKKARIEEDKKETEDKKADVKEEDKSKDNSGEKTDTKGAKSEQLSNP
# FLAG tagged chHDAC2-S407/411D (P56519, form named): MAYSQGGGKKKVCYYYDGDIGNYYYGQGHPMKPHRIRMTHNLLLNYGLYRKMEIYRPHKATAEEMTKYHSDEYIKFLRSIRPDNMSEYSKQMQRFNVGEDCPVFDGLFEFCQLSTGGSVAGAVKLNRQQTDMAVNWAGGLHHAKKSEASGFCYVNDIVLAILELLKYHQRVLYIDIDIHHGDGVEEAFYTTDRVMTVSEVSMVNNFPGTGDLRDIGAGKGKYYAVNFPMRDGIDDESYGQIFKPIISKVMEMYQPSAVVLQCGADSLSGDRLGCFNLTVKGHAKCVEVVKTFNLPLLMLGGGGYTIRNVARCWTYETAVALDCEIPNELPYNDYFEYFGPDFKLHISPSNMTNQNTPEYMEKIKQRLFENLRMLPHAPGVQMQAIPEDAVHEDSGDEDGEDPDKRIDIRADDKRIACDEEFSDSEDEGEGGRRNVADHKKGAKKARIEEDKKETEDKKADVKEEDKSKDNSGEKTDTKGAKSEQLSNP
# UniProt P56517: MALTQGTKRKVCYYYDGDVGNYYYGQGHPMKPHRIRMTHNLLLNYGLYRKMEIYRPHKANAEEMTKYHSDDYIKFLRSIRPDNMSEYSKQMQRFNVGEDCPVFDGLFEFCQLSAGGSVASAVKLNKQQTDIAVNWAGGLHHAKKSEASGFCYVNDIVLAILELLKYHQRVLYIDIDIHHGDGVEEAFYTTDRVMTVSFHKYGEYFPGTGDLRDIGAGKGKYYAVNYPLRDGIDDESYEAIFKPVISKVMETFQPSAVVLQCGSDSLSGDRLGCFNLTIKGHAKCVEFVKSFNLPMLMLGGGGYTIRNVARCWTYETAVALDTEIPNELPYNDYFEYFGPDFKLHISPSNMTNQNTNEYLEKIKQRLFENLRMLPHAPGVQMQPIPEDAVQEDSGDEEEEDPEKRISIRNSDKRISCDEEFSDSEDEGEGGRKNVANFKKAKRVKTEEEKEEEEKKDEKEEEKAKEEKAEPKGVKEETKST
# FLAG tagged chHDAC1-S406/410/415A (P56517, form named): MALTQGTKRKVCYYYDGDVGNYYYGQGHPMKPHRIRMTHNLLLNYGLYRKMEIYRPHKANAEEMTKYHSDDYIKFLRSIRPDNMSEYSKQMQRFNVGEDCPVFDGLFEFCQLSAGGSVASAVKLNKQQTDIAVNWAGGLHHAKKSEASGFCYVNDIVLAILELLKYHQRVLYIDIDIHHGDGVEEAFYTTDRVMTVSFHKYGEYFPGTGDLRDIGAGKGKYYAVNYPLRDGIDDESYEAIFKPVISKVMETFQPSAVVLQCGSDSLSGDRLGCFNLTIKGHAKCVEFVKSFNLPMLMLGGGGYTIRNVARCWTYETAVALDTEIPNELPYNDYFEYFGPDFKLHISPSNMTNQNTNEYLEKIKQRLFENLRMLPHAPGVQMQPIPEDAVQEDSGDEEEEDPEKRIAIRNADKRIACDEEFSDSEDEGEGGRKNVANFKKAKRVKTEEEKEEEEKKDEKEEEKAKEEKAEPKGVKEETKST
# FLAG tagged chHDAC1-S406/410/415D (P56517, form named): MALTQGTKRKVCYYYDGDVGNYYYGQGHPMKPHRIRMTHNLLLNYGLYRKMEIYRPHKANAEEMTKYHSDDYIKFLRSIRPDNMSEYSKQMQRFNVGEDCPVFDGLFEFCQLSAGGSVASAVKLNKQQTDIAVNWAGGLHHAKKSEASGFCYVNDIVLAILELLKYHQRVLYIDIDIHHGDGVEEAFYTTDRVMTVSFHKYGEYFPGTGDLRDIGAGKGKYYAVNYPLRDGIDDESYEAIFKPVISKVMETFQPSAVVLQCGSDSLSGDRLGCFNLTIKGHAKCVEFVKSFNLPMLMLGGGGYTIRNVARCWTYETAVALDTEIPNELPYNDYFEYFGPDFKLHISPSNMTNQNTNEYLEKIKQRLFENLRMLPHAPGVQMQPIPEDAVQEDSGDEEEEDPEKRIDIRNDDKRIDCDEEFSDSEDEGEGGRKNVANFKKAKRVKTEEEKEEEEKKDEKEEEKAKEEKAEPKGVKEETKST
# These are yes or no findings as the source states them, for the method shown. In cells and extracts the contact can be indirect. Some entries that bind do so weakly or less than the wild type.
# Tests used:
# Assay in all cases: co-IP; 293T cells co-transfected for 48 h; EBC lysis buffer (50 mM Tris-HCl, 120 mM NaCl, 0.5% NP-40); 500 ug whole cell lysate with mouse anti-FLAG agarose beads overnight at 4°C, five washes; Western blot
# [1] = target: FLAG tagged chHDAC2-S411A (chicken) (UniProt P56519)
# [2] = target: FLAG tagged wild type chicken HDAC2 (chicken) (UniProt P56519)
# [3] = target: FLAG tagged wild type chicken HDAC1 (chicken) (UniProt P56517)
# [4] = target: FLAG tagged chHDAC2-S407/411A (chicken) (UniProt P56519)
# [5] = target: FLAG tagged chHDAC2-S411D (chicken) (UniProt P56519)
# [6] = target: FLAG tagged chHDAC2-S407/411D (chicken) (UniProt P56519)
# [7] = target: FLAG tagged chHDAC2-S407D (chicken) (UniProt P56519)
# [8] = target: FLAG tagged chHDAC2-S407A (chicken) (UniProt P56519)
# [9] = target: FLAG tagged chHDAC1-S410D (chicken) (UniProt P56517)
# [10] = target: FLAG tagged chHDAC1-S406/410/415A (chicken) (UniProt P56517)
# [11] = target: FLAG tagged chHDAC1-S406/410/415D (chicken) (UniProt P56517)
binding [1],binding [2],binding [3],binding [4],binding [5],binding [6],binding [7],binding [8],binding [9],binding [10],binding [11],Substance
binds,binds,binds,binds,binds,binds,binds,binds,,,,HA tagged wild type chicken histone deacetylase 1 (unmodified) (from UniProt P56517 1-480) (enzyme)
,binds,binds,,,,,,binds,binds weakly,binds,HA tagged wild type chicken histone deacetylase 2 (unmodified) (from UniProt P56519 1-488) (enzyme)
